# Measured values: PubChem BioAssay AID504834 (National Center for Advancing Translational Sciences (NCATS), 2011)
# About 22,000 (6.9%) of roughly 320,000 compounds were called active. The inconclusive results got no clear call from the source; some entries with a clear call stand among them for comparison. Calls follow the shape of the dose curve; as a rule, active = well fitted inhibition curve with a large enough effect; inconclusive = small, poorly fitted or top-dose-only effect, or another doubt; inactive = no such curve, though single readings can be large or run the other way. Potencies of inconclusive entries are doubtful fits and often do not repeat.
# Test: Primary qHTS for delayed death inhibitors of the malarial parasite plastid, 96 hour incubation
# Conditions: P. falciparum luciferase reporter growth; series mostly up to 28.7 µM; activity change, negative = inhibition: at the top concentration
# Outline: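 Erythrocytes infected with luciferase-expressing P. falciparum were dispensed at 2% hematocrit and 0.05% parasitemia (final), then incubated with compounds 96 hours at 37 C in 5% CO2. Luminescence after detection reagent addition reported growth.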
# % is scaled to controls: 0 for no effect and ±100 for the full control effect; potency is read from the fitted curve at half-maximal effect.
SMILES,"activity change, negative = inhibition",Potency
COc1ccc(NC(=O)c2cnn(-c3ccccc3)c2C)cc1OC,inactive: -10.5%,
CCN1CCN(Cc2ccc(NC(=O)c3cc(NC(=O)c4cc(C)on4)cc(OC)c3)cc2C(F)(F)F)CC1,,active: 0.522 µM
COc1ccc(N(CC(=O)Nc2ccc(F)c(Cl)c2)S(=O)(=O)c2c(C)noc2C)cc1,,"inconclusive: 9.28 µM [inhibitor, single point]"
O=C1OCCN1CC(=O)N1CCc2c([nH]c3ccccc23)C1c1ccccn1 (stereo not drawn),,"inconclusive: 10.4 µM [inhibitor, single point]"
COc1ccc(OCC(=O)N/N=C/c2cccn2-c2cccc(C(=O)O)c2)cc1,inactive: 11%,
CC(=O)c1ccc(-c2ccc(C(=O)N(C)c3c(N)n(Cc4ccccc4)c(=O)[nH]c3=O)o2)cc1,inactive: -9.54%,
O=C(Nc1cccc(Br)c1)c1ccn[nH]1,,active: 0.657 µM
O=[N+]([O-])c1ccc(O)c(/C=N/Nc2ccccn2)c1,,"inconclusive: 4.15 µM [inhibitor, full curve, poor fit]"
Nc1nc(Nc2ccccc2)nc(NCc2ccccc2)c1[N+](=O)[O-],,"inconclusive: 18.5 µM [inhibitor, single point]"
CC1=CCC2C(=O)N(c3cccc(C(=O)Nc4ccccc4Cl)c3)C(=O)C2C1 (stereo not drawn),inactive: -19.8%,
COC(=O)C1(Cc2ccc(O)c(CC3OC3(C)C)c2)OC(=O)C(O)=C1c1ccc(O)cc1 (stereo not drawn),,"inconclusive: 4.65 µM [inhibitor, partial curve, poor fit]"
COc1ccc(NC(=O)/C(=C/c2cccnc2)NC(=O)c2cccs2)cc1,,active: 4.15 µM
Cc1ccc(NC(=O)N2CCN(C)CC2)cc1NC(=O)N1CCN(C)CC1,inactive: 42.4%,
O=C(Nc1ccccc1N1CCCC1)C1CCN(S(=O)(=O)c2ccc(F)cc2)CC1,,"inconclusive: 4.15 µM [inhibitor, partial curve]"
COc1ccc(Nc2c(-c3ccco3)nc3cccc(C)n23)cc1,,active: 2.62 µM
OCCn1c(CSc2nc3ccccc3n2CCO)nc2ccccc21,,"inconclusive: 0.0047 µM [inhibitor, full curve, poor fit]"
COc1ccc(OCCOc2ccc(S(=O)(=O)N3CCCC3)cc2C(N)=O)cc1,,active: 3.7 µM
CC(=O)c1ccc(-n2cc(-c3ccc(C(C)(C)C)cc3)[n+]3c2SCCC3)cc1,,"inconclusive: 18.5 µM [inhibitor, single point]"
C=C1CCN([C@H](C(=O)NCc2ccccc2)C(C)C)S(=O)(=O)c2ccccc21,,active: 11.7 µM
COc1ccccc1CNC(=O)CN(C)Cc1ccc(SC)cc1,,"inconclusive: 18.5 µM [inhibitor, single point]"
CC(=O)NCCc1csc(-c2ccccc2)n1,,"inconclusive: 0.0033 µM [inhibitor, full curve, poor fit]"
C/C=C(\C)C(=O)Nc1cccc(C2=NOC3(C2)C[C@@H](C(N)=O)N(C(=O)c2cc([N+](=O)[O-])cc([N+](=O)[O-])c2C)C3)c1 (stereo partly drawn),,"inconclusive: 18.5 µM [inhibitor, single point]"
CCn1c(SC)nnc1C1CCN(CC(=O)Nc2ccccc2N2CCOCC2)CC1,,"inconclusive: 11.7 µM [inhibitor, partial curve, poor fit]"

SMILES,"activity change, negative = inhibition",Potency
Cc1cc(NCCCN2CCOCC2)n2c(nc3ccccc32)c1C#N,,"inconclusive: 18.5 µM [inhibitor, single point]"
N#Cc1cccc(NC(=O)CNc2cccc(S(=O)(=O)N3CCCC3)c2)c1,,"inconclusive: 10.4 µM [inhibitor, single point]"
O=C(Nc1ccccc1)N1CCC(n2c(=O)[nH]c3ccccc32)CC1,,"inconclusive: 13.1 µM [inhibitor, partial curve, poor fit]"
COc1ccc(Cl)cc1NC(=S)NCc1cccnc1,,"inconclusive: 0.0033 µM [inhibitor, partial curve, poor fit]"
O=C(CNC(=O)c1ccccc1F)NCCc1ccccc1F,inactive: 117%,
O=C(COc1ccc(Cl)cc1)NCc1nnc(SCC(=O)N2CCCCCC2)o1,,"inconclusive: 1.31 µM [inhibitor, partial curve, poor fit]"
Cc1nc(N2CCN(C(=O)c3ccco3)CC2)c2oc3ccccc3c2n1,,"inconclusive: 18.5 µM [inhibitor, single point]"
Oc1c(C(c2ccccn2)N2CCCCC2)cc(Cl)c2cccnc12 (stereo not drawn),,"inconclusive: 1.85 µM [inhibitor, partial curve, poor fit]"
O=c1[nH]c2ccccc2cc1CN(Cc1cccnc1)S(=O)(=O)c1ccc([N+](=O)[O-])cc1,,active: 4.65 µM
CSc1ccc(/C=C2\CCn3c2nc2cc(C(=O)O)ccc2c3=O)cc1,inactive: -11.5%,
CC(C)CN(CC(C)C)C(=S)NC1CCCCC1,,"inconclusive: 14.7 µM [inhibitor, partial curve, poor fit]"
Cc1cc(N(CCCl)CCCl)ccc1/C=N/NC(=O)c1ccco1,,"inconclusive: 10.4 µM [inhibitor, single point]"
O=C(CSC1=NCCS1)N1CCc2ccccc21,,"inconclusive: 5.22 µM [inhibitor, partial curve]"
Cc1ccc(C2(c3noc(CN(C)CCO)n3)CCCC2)cc1,inactive: 0.388%,
Cc1cc(C(F)(F)F)nn1CC(=O)N1CCCC1,inactive: 49.1%,
COc1ccc(NC(=O)CN(C)C(=O)c2cc(-c3ccncc3)nc3ccccc23)cc1,,"inconclusive: 2.33 µM [inhibitor, full curve]"
c1ccc(C2CC(c3ccccc3)C(c3ccccc3)N2)cc1 (stereo not drawn),,active: 9.28 µM
O=C1CC(NS(=O)(=O)c2cccnc2)CN1c1ccc(F)cc1 (stereo not drawn),inactive: 21.8%,
CCCCC(=O)NCCc1cc2ccc(OC)cc2[nH]c1=O,inactive: -0.322%,
COc1ccc(-c2nnc(-c3cc(OC)c(OC)c(OC)c3)o2)cc1OC,,"inconclusive: 11.7 µM [inhibitor, single point]"
COc1ccc(C)cc1NC(=O)COC(=O)c1ccc2c(c1)OCCO2,inactive: 0.0078%,
Cc1nc(-c2ccc(F)cc2)c(CC(=O)Nc2ccc(C)c(S(=O)(=O)N3CCOCC3)c2)s1,,active: 9.28 µM
CC(C)=CCCC1=CCC2C(=O)NNC(=O)C2C1 (stereo not drawn),,"inconclusive: 6.57 µM [inhibitor, single point]"

# Reformatted with tabs: part of the list above
SMILES	activity change, negative = inhibition	Potency
CCN1CCN(Cc2ccc(NC(=O)c3cc(NC(=O)c4cc(C)on4)cc(OC)c3)cc2C(F)(F)F)CC1		active: 0.522 µM
COc1ccc(N(CC(=O)Nc2ccc(F)c(Cl)c2)S(=O)(=O)c2c(C)noc2C)cc1		inconclusive: 9.28 µM [inhibitor, single point]
O=C1OCCN1CC(=O)N1CCc2c([nH]c3ccccc23)C1c1ccccn1 (stereo not drawn)		inconclusive: 10.4 µM [inhibitor, single point]
COc1ccc(OCC(=O)N/N=C/c2cccn2-c2cccc(C(=O)O)c2)cc1	inactive: 11%	
CC(=O)c1ccc(-c2ccc(C(=O)N(C)c3c(N)n(Cc4ccccc4)c(=O)[nH]c3=O)o2)cc1	inactive: -9.54%	

# Continued.

SMILES,"activity change, negative = inhibition",Potency
Cn1cc(C(=O)CCl)c2ccccc21,,"inconclusive: 2.62 µM [inhibitor, full curve]"
Clc1cccc(CSc2nccn2-c2ccccc2)c1,,"inconclusive: 8.28 µM [inhibitor, partial curve, poor fit]"
Cc1nc2nc(C)c(NS(=O)(=O)c3ccc(Cl)s3)c(=O)n2[nH]1,inactive: -0.314%,
Cc1cc(C(=O)Nn2c(-c3ccncc3)nc3ccccc3c2=O)ccc1[N+](=O)[O-],,"inconclusive: 9.28 µM [inhibitor, partial curve, poor fit]"
Cc1ccc2c(c1)C1CN(C)CCC1N2C(=O)c1ccc(Cl)c(S(=O)(=O)N2CCOCC2)c1 (stereo not drawn),,"inconclusive: 9.28 µM [inhibitor, partial curve]"
O=C(NCC(c1cccs1)N1CCOCC1)C1CCN(S(=O)(=O)c2ccccc2C(F)(F)F)CC1 (stereo not drawn),,"inconclusive: 8.28 µM [inhibitor, partial curve, poor fit]"
O=[N+]([O-])c1ccc(N2CCCCCC2)c2ncccc12,,"inconclusive: 8.28 µM [inhibitor, partial curve, poor fit]"
OC(COc1ccc(Cl)cc1)CN1CCC(Cc2ccccc2)CC1 (stereo not drawn),,"inconclusive: 18.5 µM [inhibitor, single point]"
Cc1ccc(NC(=O)COC(=O)C2CCC2)cc1S(=O)(=O)N1CCCCC1,,"inconclusive: 18.5 µM [inhibitor, single point]"
CCN(CC)CCCNC(=O)CN1C(=O)CSc2ccc(S(=O)(=O)N3CCOCC3)cc21,,"inconclusive: 18.5 µM [inhibitor, single point]"
CCCOc1ccc(-c2nc(C#N)c(N3CCC(C(N)=O)CC3)o2)cc1,,active: 10.4 µM
Oc1ccc(O)c(-c2cnns2)c1,,"inconclusive: 10.4 µM [inhibitor, single point]"
CCC(C)n1c(SCC(=O)NCCc2ccc(S(N)(=O)=O)cc2)nc2ccsc2c1=O (stereo not drawn),,"inconclusive: 1.31 µM [inhibitor, partial curve, poor fit]"
CCCCOc1ccc(C(=O)Nc2ccc3c(c2)OCO3)cc1,inactive: 26.1%,
Cc1nc(NC(=O)c2c(-c3ccccc3Cl)noc2C)sc1C,,"inconclusive: 11.7 µM [inhibitor, single point]"
O=C(Nc1ccccc1)C1=C[C@H](c2ccc(Br)cc2)C[C@H](OCc2ccc(CO)cc2)O1,,"inconclusive: 10.4 µM [inhibitor, partial curve]"
S=C(NC1CCCCC1)N1CCOCCOCCN(C(=S)NC2CCCCC2)CCOCCOCC1,,active: 10.4 µM
O=C(NCCCN1CCOCC1)c1ccccc1NS(=O)(=O)c1cc([N+](=O)[O-])ccc1Cl,,"inconclusive: 10.4 µM [inhibitor, single point]"
COc1ccccc1C(=O)NCC(=O)NC(C)c1ccc(-n2ccnc2)cc1 (stereo not drawn),,"inconclusive: 20.8 µM [inhibitor, single point]"
Cc1cc(NCCO)nc(-n2nc(C)cc2C)n1,,"inconclusive: 9.28 µM [inhibitor, single point]"
CC(Oc1ccc(Cl)cc1Cl)C(=O)NCCC1=CCCCC1 (stereo not drawn),,"inconclusive: 2.94 µM [inhibitor, single point]"
CCN(CC(=O)NCc1ccc(F)cc1)C(=O)C1CCN(S(=O)(=O)c2ccc(C(C)C)cc2)CC1,,"inconclusive: 8.28 µM [inhibitor, partial curve, poor fit]"
